In the supplement of paper PMC8728848:
The list shows a part of the results.

Legend:
Experiment in all cases: glycan array binding signal (z-score within array); higher = stronger binding
Settings in all cases: glycan notation: IUPAC condensed, linker removed
[1] = molecular target: Gal(a1-3)Gal(b1-4)GlcNAc(b1-2)Man
In short: (§1)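 Glycan array data came from 3228 arrays in the Consortium for Functional Glycomics database, and only arrays with an available protein sequence were kept. Glycan names were put into IUPAC-condensed notation, and columns mapping to the same glycan were averaged. The binding signal is a within-array Z-score, averaged across arrays of one protein sequence run at different concentrations or buffers and across linkers. A negative Z-score can be read as non-binding.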

[2] = molecular target: Gal(a1-3)Gal(b1-4)GlcNAc(b1-2)Man(a1-3)[Gal(a1-3)Gal(b1-4)GlcNAc(b1-2)Man(a1-6)]Man(b1-4)GlcNAc(b1-4)GlcNAc
In short: as §1

[3] = molecular target: Gal(a1-3)Gal(b1-4)GlcNAc(b1-3)GalNAc
In short: as §1

[4] = molecular target: Gal(a1-3)Gal(b1-4)GlcNAc(b1-6)GalNAc
In short: as §1

[5] = molecular target: Gal(a1-3)Gal(b1-4)[Fuc(a1-3)]GlcNAc
In short: as §1

[6] = molecular target: Gal(a1-3)Gal(b1-4)[Fuc(a1-3)]GlcNAc(b1-2)Man(a1-3)[Gal(a1-3)Gal(b1-4)[Fuc(a1-3)]GlcNAc(b1-2)Man(a1-6)]Man(b1-4)GlcNAc(b1-4)GlcNAc
In short: as §1

Gal(a1-3)GalNAc = molecular target: Gal(a1-3)GalNAc
In short: as §1

[7] = molecular target: Gal(a1-3)[Gal(a1-4)]Gal(b1-4)GlcNAc
In short: as §1

[8] = molecular target: Gal(a1-4)Gal(b1-3)GlcNAc(b1-2)Man(a1-3)[Gal(a1-4)Gal(b1-3)GlcNAc(b1-2)Man(a1-6)]Man(b1-4)GlcNAc(b1-4)GlcNAc
In short: as §1

Gal(a1-4)Gal(b1-4)Glc = molecular target: Gal(a1-4)Gal(b1-4)Glc
In short: as §1

Gal(a1-4)Gal(b1-4)GlcNAc = molecular target: Gal(a1-4)Gal(b1-4)GlcNAc
In short: as §1

[9] = molecular target: Gal(a1-4)Gal(b1-4)GlcNAc(b1-2)Man(a1-3)[Gal(a1-4)Gal(b1-4)GlcNAc(b1-2)Man(a1-6)]Man(b1-4)GlcNAc(b1-4)GlcNAc
In short: as §1

[10] = molecular target: Gal(a1-4)Gal(b1-4)GlcNAc(b1-3)Gal(b1-4)Glc
In short: as §1

Gal(a1-4)GlcNAc = molecular target: Gal(a1-4)GlcNAc
In short: as §1

Gal(a1-6)Glc = molecular target: Gal(a1-6)Glc
In short: as §1

Gal(b1-2)Gal = molecular target: Gal(b1-2)Gal
In short: as §1

Gal(b1-3)Gal = molecular target: Gal(b1-3)Gal
In short: as §1

Gal(b1-3)Gal(b1-4)GlcNAc = molecular target: Gal(b1-3)Gal(b1-4)GlcNAc
In short: as §1

Gal(b1-3)GalNAc = molecular target: Gal(b1-3)GalNAc
In short: as §1

[11] = molecular target: Gal(b1-3)GalNAc(a1-3)[Fuc(a1-2)]Gal(b1-4)Glc
In short: as §1

[12] = molecular target: Gal(b1-3)GalNAc(a1-3)[Fuc(a1-2)]Gal(b1-4)GlcNAc
In short: as §1

Gal(b1-3)GalNAc(b1-3)Gal = molecular target: Gal(b1-3)GalNAc(b1-3)Gal
In short: as §1

[13] = molecular target: Gal(b1-3)GalNAc(b1-3)Gal(a1-4)Gal(b1-4)Glc
In short: as §1

[14] = molecular target: Gal(b1-3)GalNAc(b1-4)Gal(b1-4)Glc
In short: as §1

[15] = molecular target: Gal(b1-3)GalNAc(b1-4)[Neu5Ac(a2-3)]Gal(b1-4)Glc
In short: as §1

Gal(b1-3)GlcNAc = molecular target: Gal(b1-3)GlcNAc
In short: as §1

[16] = molecular target: Gal(b1-3)GlcNAc(a1-3)Gal(b1-4)GlcNAc
In short: as §1

[17] = molecular target: Gal(b1-3)GlcNAc(a1-6)Gal(b1-4)GlcNAc
In short: as §1

Gal(b1-3)GlcNAc(b1-2)Man = molecular target: Gal(b1-3)GlcNAc(b1-2)Man
In short: as §1

[18] = molecular target: Gal(b1-3)GlcNAc(b1-2)Man(a1-3)[Gal(b1-3)GlcNAc(b1-2)Man(a1-6)]Man(b1-4)GlcNAc(b1-4)GlcNAc
In short: as §1

[19] = molecular target: Gal(b1-3)GlcNAc(b1-2)Man(a1-3)[Gal(b1-3)GlcNAc(b1-2)Man(a1-6)]Man(b1-4)GlcNAc(b1-4)[Fuc(a1-6)]GlcNAc
In short: as §1

[20] = molecular target: Gal(b1-3)GlcNAc(b1-2)Man(a1-3)[GlcNAc(b1-4)][Gal(b1-3)GlcNAc(b1-2)Man(a1-6)]Man(b1-4)GlcNAc(b1-4)GlcNAc
In short: as §1

[21] = molecular target: Gal(b1-3)GlcNAc(b1-2)[Gal(b1-3)GlcNAc(b1-6)]Man(a1-6)[Gal(b1-3)GlcNAc(b1-2)Man(a1-3)]Man(b1-4)GlcNAc(b1-4)GlcNAc
In short: as §1

[22] = molecular target: Gal(b1-3)GlcNAc(b1-3)Gal(b1-3)GlcNAc
In short: as §1

[23] = molecular target: Gal(b1-3)GlcNAc(b1-3)Gal(b1-4)Glc
In short: as §1

[24] = molecular target: Gal(b1-3)GlcNAc(b1-3)Gal(b1-4)GlcNAc
In short: as §1

[25] = molecular target: Gal(b1-3)GlcNAc(b1-3)Gal(b1-4)GlcNAc(b1-2)Man(a1-3)[Gal(b1-3)GlcNAc(b1-3)Gal(b1-4)GlcNAc(b1-2)Man(a1-6)]Man(b1-4)GlcNAc(b1-4)GlcNAc
In short: as §1

[26] = molecular target: Gal(b1-3)GlcNAc(b1-3)Gal(b1-4)GlcNAc(b1-2)[Gal(b1-3)GlcNAc(b1-3)Gal(b1-4)GlcNAc(b1-6)]Man(a1-6)[Gal(b1-3)GlcNAc(b1-3)Gal(b1-4)GlcNAc(b1-2)Man(a1-3)]Man(b1-4)GlcNAc(b1-4)[Fuc(a1-6)]GlcNAc
In short: as §1

[27] = molecular target: Gal(b1-3)GlcNAc(b1-3)Gal(b1-4)GlcNAc(b1-3)Gal(b1-4)GlcNAc(b1-2)[Gal(b1-3)GlcNAc(b1-3)Gal(b1-4)GlcNAc(b1-3)Gal(b1-4)GlcNAc(b1-6)]Man(a1-6)[Gal(b1-3)GlcNAc(b1-3)Gal(b1-4)GlcNAc(b1-3)Gal(b1-4)GlcNAc(b1-2)Man(a1-3)]Man(b1-4)GlcNAc(b1-4)[Fuc(a1-6)]GlcNAc
In short: as §1

[28] = molecular target: Gal(b1-3)GlcNAc(b1-3)Gal(b1-4)GlcNAc(b1-6)[Gal(b1-3)GlcNAc(b1-3)]Gal(b1-4)Glc
In short: as §1

[29] = molecular target: Gal(b1-3)GlcNAc(b1-3)Gal(b1-4)[Fuc(a1-3)]GlcNAc
In short: as §1

[30] = molecular target: Gal(b1-3)GlcNAc(b1-3)Gal(b1-4)[Fuc(a1-3)]GlcNAc(b1-6)[Gal(b1-3)GlcNAc(b1-3)]Gal(b1-4)Glc
In short: as §1

[31] = molecular target: Gal(b1-3)GlcNAc(b1-3)GalNAc
In short: as §1

[32] = molecular target: Gal(b1-3)GlcNAc(b1-6)Gal(b1-4)GlcNAc
In short: as §1

[33] = molecular target: Gal(b1-3)GlcNAc(b1-6)GalNAc
In short: as §1

B1: GS7807G-bfa-506-18-506 (Bacteroides fragilis) (protein)
chain: ASCDKFDEINTDPDATTKVTSSLLATGLLLDITSSSASKSFIYDELLAKQMAWGESMEDYQYNVFGRSGFGGYTTLINAQKMVESVSDDNVNAYDGLAHFIKAYKIFYMSMEMGDLPYEEALQGELGLVRPKYNTQKEVMNFILSDLETAYELFSTAKDFDGDPILGGSISKWKKATTAFQLKVLMHLSKKESDADLKVKERFARIVASGSLMESNEDNLQMKYADKANTVYPFHNTNTKHAGYAMLSTMLIDKFKATGDIRMFYYAKPAKAKLNEGVTADSWDAYIGTDPSLPFEQIEKAYATEQYSGFNARYTDYPSGEPVVRLGYAEQNFILAEAAVRGWISGDASAYYKKAIRAHMEFIASNTPDEEVYHHGHPITEEAIAAFLETPAIQLSGEKEEDIEKILTQRYLASFMQHPYDVYYDYRRTGYPVLPINPATNRNTMNDRLPMRWMYPKSESDYNLEHQNEALERQFGGVDDVNKLMWILQ
glycan array binding signal (z-score) [1]: -0.042
glycan array binding signal (z-score) [2]: 2.43
glycan array binding signal (z-score) [3]: 1.54
glycan array binding signal (z-score) [4]: 0.531
glycan array binding signal (z-score) [5]: -0.692
glycan array binding signal (z-score) [6]: 0.104
glycan array binding signal (z-score) (Gal(a1-3)GalNAc): -0.513
glycan array binding signal (z-score) [7]: 1.77
glycan array binding signal (z-score) [8]: 1.08
glycan array binding signal (z-score) (Gal(a1-4)Gal(b1-4)Glc): 0.636
glycan array binding signal (z-score) (Gal(a1-4)Gal(b1-4)GlcNAc): 0.104
glycan array binding signal (z-score) [9]: 1.29
glycan array binding signal (z-score) [10]: 0.105
glycan array binding signal (z-score) (Gal(a1-4)GlcNAc): -0.982
glycan array binding signal (z-score) (Gal(a1-6)Glc): -1.14
glycan array binding signal (z-score) (Gal(b1-2)Gal): -0.442
glycan array binding signal (z-score) (Gal(b1-3)Gal): -0.337
glycan array binding signal (z-score) (Gal(b1-3)Gal(b1-4)GlcNAc): 0.463
glycan array binding signal (z-score) (Gal(b1-3)GalNAc): -0.079
glycan array binding signal (z-score) [11]: 0.056
glycan array binding signal (z-score) [12]: -0.687
glycan array binding signal (z-score) (Gal(b1-3)GalNAc(b1-3)Gal): -0.588
glycan array binding signal (z-score) [13]: 1.2
glycan array binding signal (z-score) [14]: 0.291
glycan array binding signal (z-score) [15]: 0.38
glycan array binding signal (z-score) (Gal(b1-3)GlcNAc): -0.507
glycan array binding signal (z-score) [16]: -0.228
glycan array binding signal (z-score) [17]: 0.183
glycan array binding signal (z-score) (Gal(b1-3)GlcNAc(b1-2)Man): -0.124
glycan array binding signal (z-score) [18]: 2.12
glycan array binding signal (z-score) [19]: 2.73
glycan array binding signal (z-score) [20]: 1.08
glycan array binding signal (z-score) [21]: 0.847
glycan array binding signal (z-score) [22]: -0.195
glycan array binding signal (z-score) [23]: -0.106
glycan array binding signal (z-score) [24]: -0.493
glycan array binding signal (z-score) [25]: 0.562
glycan array binding signal (z-score) [26]: 0.928
glycan array binding signal (z-score) [27]: 2.5
glycan array binding signal (z-score) [28]: 0.625
glycan array binding signal (z-score) [29]: -0.23
glycan array binding signal (z-score) [30]: 1.28
glycan array binding signal (z-score) [31]: 0.293
glycan array binding signal (z-score) [32]: -0.013
glycan array binding signal (z-score) [33]: -0.165
